{
  "sequences": {"note": "By UniProt entry, the sequences of proteins in these tests, tags left out.", "UniProt O94967": "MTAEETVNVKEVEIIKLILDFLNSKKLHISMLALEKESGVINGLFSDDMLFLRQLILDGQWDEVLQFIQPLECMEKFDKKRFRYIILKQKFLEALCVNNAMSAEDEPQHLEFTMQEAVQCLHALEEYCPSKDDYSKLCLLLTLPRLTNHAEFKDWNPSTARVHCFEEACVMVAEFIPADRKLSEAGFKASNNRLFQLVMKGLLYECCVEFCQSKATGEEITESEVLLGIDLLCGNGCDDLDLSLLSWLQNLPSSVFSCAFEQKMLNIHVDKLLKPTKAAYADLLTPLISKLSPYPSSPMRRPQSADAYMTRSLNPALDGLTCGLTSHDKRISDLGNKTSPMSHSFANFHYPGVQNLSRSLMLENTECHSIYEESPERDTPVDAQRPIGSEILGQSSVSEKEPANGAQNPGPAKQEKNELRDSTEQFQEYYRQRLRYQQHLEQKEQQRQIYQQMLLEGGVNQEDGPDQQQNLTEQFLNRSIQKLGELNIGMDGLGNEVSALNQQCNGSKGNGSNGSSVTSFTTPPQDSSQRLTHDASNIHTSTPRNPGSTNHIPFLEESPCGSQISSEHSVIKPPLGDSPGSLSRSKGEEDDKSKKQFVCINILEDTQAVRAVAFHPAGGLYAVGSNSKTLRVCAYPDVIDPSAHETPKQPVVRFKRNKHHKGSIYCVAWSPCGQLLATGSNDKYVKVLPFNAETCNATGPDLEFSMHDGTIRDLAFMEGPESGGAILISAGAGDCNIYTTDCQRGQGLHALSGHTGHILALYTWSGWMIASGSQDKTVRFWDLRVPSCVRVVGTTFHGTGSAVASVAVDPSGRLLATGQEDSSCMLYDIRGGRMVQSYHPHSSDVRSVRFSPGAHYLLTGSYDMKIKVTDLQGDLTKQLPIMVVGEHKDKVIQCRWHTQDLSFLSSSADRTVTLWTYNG", "UniProt Q9Y266": "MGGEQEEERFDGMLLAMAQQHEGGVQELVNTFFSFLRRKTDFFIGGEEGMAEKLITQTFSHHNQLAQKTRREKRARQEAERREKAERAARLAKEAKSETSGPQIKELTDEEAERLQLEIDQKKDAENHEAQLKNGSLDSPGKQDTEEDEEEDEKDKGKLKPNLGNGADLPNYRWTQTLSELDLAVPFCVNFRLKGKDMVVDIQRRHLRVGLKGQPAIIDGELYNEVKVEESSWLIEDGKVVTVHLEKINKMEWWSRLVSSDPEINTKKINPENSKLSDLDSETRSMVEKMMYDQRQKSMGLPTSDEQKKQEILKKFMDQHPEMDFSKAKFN"},
  "source": "paper PMC4869170",
  "experiment_in_all_cases": "affinity purification with mass spectrometry; SF-TAP-tagged bait overexpressed in HEK293T; lysis in 0.5% NP-40 in TBS (30 mM Tris-HCl pH 7.4, 150 mM NaCl); two steps at 4 °C: Strep-Tactin superflow (desthiobiotin elution), then anti-FLAG M2 agarose (FLAG peptide elution); LC-MS/MS; interactions scored by socioaffinity",
  "key": {"[1]": {"molecular_target": "T1, DCAF7 (human) (UniProt P61962)", "T1 sequence": "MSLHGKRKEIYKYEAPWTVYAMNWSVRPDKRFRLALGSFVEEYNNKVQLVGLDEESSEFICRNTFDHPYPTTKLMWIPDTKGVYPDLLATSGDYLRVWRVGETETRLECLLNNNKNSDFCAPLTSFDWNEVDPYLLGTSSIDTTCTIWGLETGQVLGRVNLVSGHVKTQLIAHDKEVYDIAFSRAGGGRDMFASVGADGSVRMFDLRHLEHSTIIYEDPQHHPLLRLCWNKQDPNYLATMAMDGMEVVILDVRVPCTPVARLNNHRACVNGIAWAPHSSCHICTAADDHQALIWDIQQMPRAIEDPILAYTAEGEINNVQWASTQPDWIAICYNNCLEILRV"}, "[2]": {"molecular_target": "WDR47 (human) (UniProt O94967)"}, "[3]": {"molecular_target": "T2, IFT80 (human) (UniProt Q9P2H3)", "T2 sequence": "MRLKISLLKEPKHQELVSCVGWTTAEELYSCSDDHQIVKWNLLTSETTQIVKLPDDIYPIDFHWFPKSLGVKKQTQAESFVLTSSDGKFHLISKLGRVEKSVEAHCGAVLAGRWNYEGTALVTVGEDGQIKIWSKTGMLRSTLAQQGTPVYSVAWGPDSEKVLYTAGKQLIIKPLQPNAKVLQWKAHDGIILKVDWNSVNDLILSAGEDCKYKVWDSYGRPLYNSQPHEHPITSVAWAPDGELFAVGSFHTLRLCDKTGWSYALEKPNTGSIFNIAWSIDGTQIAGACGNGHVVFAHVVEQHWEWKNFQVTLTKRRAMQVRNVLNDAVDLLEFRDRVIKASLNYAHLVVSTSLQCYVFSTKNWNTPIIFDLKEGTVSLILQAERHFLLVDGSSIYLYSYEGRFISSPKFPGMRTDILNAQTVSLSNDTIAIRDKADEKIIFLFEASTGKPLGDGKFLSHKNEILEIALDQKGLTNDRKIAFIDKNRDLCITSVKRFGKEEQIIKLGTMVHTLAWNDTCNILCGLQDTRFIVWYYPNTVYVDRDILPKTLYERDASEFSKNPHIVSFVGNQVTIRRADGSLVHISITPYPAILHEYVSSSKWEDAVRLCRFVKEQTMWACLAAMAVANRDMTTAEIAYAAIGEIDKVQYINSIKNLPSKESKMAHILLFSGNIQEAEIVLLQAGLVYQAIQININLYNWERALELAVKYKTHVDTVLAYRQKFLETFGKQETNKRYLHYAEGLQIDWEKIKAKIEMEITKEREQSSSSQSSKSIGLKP"}, "[4]": {"molecular_target": "T3, IFT122 (human) (UniProt Q9HBG6)", "T3 sequence": "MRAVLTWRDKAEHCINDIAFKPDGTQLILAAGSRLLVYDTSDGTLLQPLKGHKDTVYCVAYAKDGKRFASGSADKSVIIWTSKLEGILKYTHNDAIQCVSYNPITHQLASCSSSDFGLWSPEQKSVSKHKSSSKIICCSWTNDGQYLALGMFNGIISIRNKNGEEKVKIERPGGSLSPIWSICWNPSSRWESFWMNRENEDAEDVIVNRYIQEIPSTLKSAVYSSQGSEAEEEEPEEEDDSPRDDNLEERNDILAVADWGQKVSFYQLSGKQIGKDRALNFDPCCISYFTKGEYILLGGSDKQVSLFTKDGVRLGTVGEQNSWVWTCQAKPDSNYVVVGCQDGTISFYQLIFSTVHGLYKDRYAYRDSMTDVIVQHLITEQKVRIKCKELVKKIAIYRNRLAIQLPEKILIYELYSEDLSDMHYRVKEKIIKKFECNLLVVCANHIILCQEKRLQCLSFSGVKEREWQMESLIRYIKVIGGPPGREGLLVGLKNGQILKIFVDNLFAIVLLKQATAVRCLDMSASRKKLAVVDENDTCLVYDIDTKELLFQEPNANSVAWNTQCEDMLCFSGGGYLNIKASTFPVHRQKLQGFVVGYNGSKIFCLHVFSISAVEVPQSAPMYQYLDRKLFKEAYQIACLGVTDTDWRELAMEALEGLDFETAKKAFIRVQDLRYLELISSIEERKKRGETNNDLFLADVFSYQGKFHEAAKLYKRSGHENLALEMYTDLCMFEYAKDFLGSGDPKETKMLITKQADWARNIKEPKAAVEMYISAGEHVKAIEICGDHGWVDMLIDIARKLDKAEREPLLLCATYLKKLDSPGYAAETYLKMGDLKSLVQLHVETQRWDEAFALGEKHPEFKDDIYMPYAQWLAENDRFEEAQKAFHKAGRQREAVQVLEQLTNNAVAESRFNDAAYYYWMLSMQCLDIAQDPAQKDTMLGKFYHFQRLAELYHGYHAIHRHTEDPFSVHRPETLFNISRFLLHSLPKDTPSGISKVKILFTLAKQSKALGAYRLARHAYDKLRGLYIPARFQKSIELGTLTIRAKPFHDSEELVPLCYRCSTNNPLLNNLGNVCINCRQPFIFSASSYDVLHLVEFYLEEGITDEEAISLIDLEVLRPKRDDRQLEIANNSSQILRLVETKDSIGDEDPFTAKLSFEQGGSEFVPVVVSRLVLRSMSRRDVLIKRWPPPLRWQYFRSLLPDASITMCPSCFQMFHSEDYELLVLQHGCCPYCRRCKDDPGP"}},
  "note": "Results are given in words; binding and its absence hold for the method and conditions named. Binding seen in cells or lysates may run through a third protein. Here binding means that the protein was enriched with, or labelled near, the bait; the list need not be complete. For some of these results: No binding means not detected with the bait.",
  "data": [
    {"substance": "NUDC (from UniProt Q9Y266 1-331)", "values": [
      {"measurement": "binding", "setting": "[1]", "result": "no binding"},
      {"measurement": "binding", "setting": "[2]", "result": "no binding"},
      {"measurement": "binding", "setting": "[3]", "result": "binds"},
      {"measurement": "binding", "setting": "[4]", "result": "binds"}
    ]}
  ]
}
